# From article PMC7346168
# T1: 2-CysPRXA C54D (pseudo-hyperoxidized variant) (Arabidopsis) (UniProt Q96291)
# T1 sequence: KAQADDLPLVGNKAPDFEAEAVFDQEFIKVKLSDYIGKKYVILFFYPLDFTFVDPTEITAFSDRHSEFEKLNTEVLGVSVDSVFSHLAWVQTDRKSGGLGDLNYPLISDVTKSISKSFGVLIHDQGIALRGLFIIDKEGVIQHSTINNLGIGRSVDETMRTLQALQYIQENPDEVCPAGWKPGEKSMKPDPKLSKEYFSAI
# B1: HTPA synthase 1 (protein, UniProt Q9LZX6 40-365)
# chain: AVVPNFHLPMRSLEDKNRTNTDDIRSLRVITAIKTPYLPDGRFDLQAYDDLVNTQIENGAEGVIVGGTTGEGQLMSWDEHIMLIGHTVNCFGGRIKVIGNTGSNSTREAIHATEQGFAMGMHGALHINPYYGKTSIEGMNAHFQTVLHMGPTIIYNVPGRTCQDIPPQVIFKLSQNPNMAGVKECVGNNRVEEYTEKGIVVWSGNDDQCHDSRWDHGATGVISVTSNLVPGLMRKLMFEGRNSALNAKLLPLMDWLFQEPNPIGVNTALAQLGVARPVFRLPYVPLPLSKRIEFVKLVKEIGREHFVGDRDVQVLDDDDFILIGRY
# B2: Adenylosuccinate synthetase (protein, UniProt Q96529 46-490)
# chain: SLSVAADSAATESLGRIGSLSQVSGVLGCQWGDEGKGKLVDILAQHFDIVARCQGGANAGHTIYNSEGKKFALHLVPSGILNEDTTCVIGNGVVVHLPGLFKEIDGLESNGVSCKGRILVSDRAHLLFDFHQEVDGLRESELAKSFIGTTKRGIGPAYSSKVIRNGIRVGDLRHMDTLPQKLDLLLSDAAARFQGFKYTPEMLREEVEAYKRYADRLEPYITDTVHFINDSISQKKKVLVEGGQATMLDIDFGTYPFVTSSSPSAGGICTGLGIAPSVVGDLIGVVKAYTTRVGSGPFPTENLGTGGDLLRLAGQEFGTTTGRPRRCGWLDIVALKFSCQINGFASLNLTKLDVLSDLNEIQLGVAYKRSDGTPVKSFPGDLRLLEELHVEYEVLPGWKSDISSVRNYSDLPKAAQQYVERIEELVGVPIHYIGIGPGRDALIYK
# B3: Allene oxide synthase (protein, UniProt Q96242 34-518)
# chain: SGSETPDLTVATRTGSKDLPIRNIPGNYGLPIVGPIKDRWDYFYDQGAEEFFKSRIRKYNSTVYRVNMPPGAFIAENPQVVALLDGKSFPVLFDVDKVEKKDLFTGTYMPSTELTGGYRILSYLDPSEPKHEKLKNLLFFLLKSSRNRIFPEFQATYSELFDSLEKELSLKGKADFGGSSDGTAFNFLARAFYGTNPADTKLKADAPGLITKWVLFNLHPLLSIGLPRVIEEPLIHTFSLPPALVKSDYQRLYEFFLESAGEILVEADKLGISREEATHNLLFATCFNTWGGMKILFPNMVKRIGRAGHQVHNRLAEEIRSVIKSNGGELTMGAIEKMELTKSVVYECLRFEPPVTAQYGRAKKDLVIESHDAAFKVKAGEMLYGYQPLATRDPKIFDRADEFVPERFVGEEGEKLLRHVLWSNGPETETPTVGNKQCAGKDFVVLVARLFVIEIFRRYDSFDIEVGTSPLGSSVNFSSLRKASF
# B4: Dihydroxy-acid dehydratase (protein, UniProt Q9LIR4 35-608)
# chain: SAQSVTADPSPPITDTNKLNKYSSRITEPKSQGGSQAILHGVGLSDDDLLKPQIGISSVWYEGNTCNMHLLKLSEAVKEGVENAGMVGFRFNTIGVSDAISMGTRGMCFSLQSRDLIADSIETVMSAQWYDGNISIPGCDKNMPGTIMAMGRLNRPGIMVYGGTIKPGHFQDKTYDIVSAFQSYGEFVSGSISDEQRKTVLHHSCPGAGACGGMYTANTMASAIEAMGMSLPYSSSIPAEDPLKLDECRLAGKYLLELLKMDLKPRDIITPKSLRNAMVSVMALGGSTNAVLHLIAIARSVGLELTLDDFQKVSDAVPFLADLKPSGKYVMEDIHKIGGTPAVLRYLLELGLMDGDCMTVTGQTLAQNLENVPSLTEGQEIIRPLSNPIKETGHIQILRGDLAPDGSVAKITGKEGLYFSGPALVFEGEESMLAAISADPMSFKGTVVVIRGEGPKGGPGMPEMLTPTSAIMGAGLGKECALLTDGRFSGGSHGFVVGHICPEAQEGGPIGLIKNGDIITIDIGKKRIDTQVSPEEMNDRRKKWTAPAYKVNRGVLYKYIKNVQSASDGCVTDE
# B5: Photosystem II factor HCF136 (protein, UniProt O82660 79-403)
# chain: DEQLSEWERVFLPIDPGVVLLDIAFVPDEPSRGFLLGTRQTLLETKDGGSTWNPRSIPSAEEEDFNYRFNSISFKGKEGWIIGKPAILLYTADAGENWDRIPLSSQLPGDMVFIKATEDKSAEMVTDEGAIYVTSNRGYNWKAAIQETVSATLNRTVSSGISGASYYTGTFSAVNRSPDGRYVAVSSRGNFFLTWEPGQPYWQPHNRAVARRIQNMGWRADGGLWLLVRGGGLYLSKGTGITEEFEEVPVQSRGFGILDVGYRSEEEAWAAGGSGILLRTRNGGKSWNRDKAADNIAANLYAVKFVDDKKGFVLGNDGVLLRYVG
# B6: Plastidial pyruvate kinase 3 (protein, UniProt Q93Z53 56-571)
# chain: SIKISEDSRKPKAYAENGAFDVGVLDSSSYRLADSRTSSNDSRRKTKIVCTIGPSSSSREMIWKLAEAGMNVARLNMSHGDHASHQITIDLVKEYNSLFVDKAIAIMLDTKGPEVRSGDVPQPIFLEEGQEFNFTIKRGVSLKDTVSVNYDDFVNDVEVGDILLVDGGMMSLAVKSKTSDLVKCVVIDGGELQSRRHLNVRGKSATLPSITDKDWEDIKFGVDNQVDFYAVSFVKDAKVVHELKNYLKTCSADISVIVKIESADSIKNLPSIISACDGAMVARGDLGAELPIEEVPLLQEEIIRRCRSIHKPVIVATNMLESMINHPTPTRAEVSDIAIAVREGADAIMLSGETAHGKFPLKAVNVMHTVALRTEASLPVRTSASRTTAYKGHMGQMFAFHASIMANTLSSPLIVFTRTGSMAVLLSHYRPSATIFAFTNQRRIMQRLALYQGVMPIYMEFSDDAEDTYARSLKLLQDENMLKEGQHVTLVQSGSQPIWREESTHLIQVRKIKIGG
# B7: Plastocyanin major isoform (protein, UniProt P42699 69-167)
# chain: IEVLLGGGDGSLAFIPNDFSIAKGEKIVFKNNAGYPHNVVFDEDEIPSGVDVAKISMDEQDLLNGAGETYEVALTEPGTYSFYCAPHQGAGMVGKVTVN
# B8: Red chlorophyll catabolite reductase (protein, UniProt Q8LDU4 40-319)
# chain: SMEDHDDHLRRKFMEFPYVSPTRKQLMVDLMSTVENRLQSQLLPCNLPPDVRNFNNPNGSAEASLHIRSGDKSSPIDFVIGSWIHCKIPTGVSLNITSISGFLNSSTKAPNFVVELIQSSSKSLVLILDLPHRKDLVLNPDYLKEYYQDTALDSHRQSLLKLPEVNPYVSPSLFVRSAFSPTASMLKIDAEEEDKLEEILRDHVSPAAKEVLEVWLERCVKEEEEKIVVGEEERMELERRDKSFRRKSIEDDLDLQFPRMFGEEVSSRVVHAIKEAFGVL
# B9: Ribose-P pyrophosphokinase 3 (protein, UniProt Q93Z66 40-411)
# chain: TASVSNRCIKCGVRSLENHSGHRSLDFLSNGDPISLINPNSSSPITMAAATSESGSKSSKRVCLFHSDETRDLAERIVAKSDCIELRSINWKKFDDGFPNLFIQNAQGIRGQHVAFLASFSSPAVIFEQLSVIYALPKLFVSSFTLVLPFFPTGTSERMEDEGDVATAFTLARILSNIPTSRGGPTSLVTFDIHALQERFYFGDTILPCFESGIPLLKSRLQSLPDSDNISIAFPDDGAWKRFHKQLQHYPTIVCNKVRMGDKRIVRIKEGDAEGRHVVIVDDLVQSGGTLIECQKVLAAHGAAKISAYVTHGIFPRSSWKRFKLDTKGDPAEGLSYFWITDSCGMTVKEVMNKPPFEVLSLAGSIASALQV
# B10: Starch synthase 3 (protein, UniProt F4IAG2 45-1042)
# chain: QKKNGEKDSNATSTATNEVSGISKLPAAKVDVQKQSSVVLNERNVLDRSDIEDGSDRLDKKTTDDDDLLEQKLKLERENLRRKEIETLAAENLARGDRMFVYPVIVKPDEDIEVFLNRNLSTLNNEPDVLIMGAFNEWRWKSFTRRLEKTWIHEDWLSCLLHIPKEAYKMDFVFFNGQSVYDNNDSKDFCVEIKGGMDKVDFENFLLEEKLREQEKLAKEEAERERQKEEKRRIEAQKAAIEADRAQAKAETQKRRELLQPAIKKAVVSAENVWYIEPSDFKAEDTVKLYYNKRSGPLTNSKELWLHGGFNNWVDGLSIVVKLVNAELKDVDPKSGNWWFAEVVVPGGALVIDWVFADGPPKGAFLYDNNGYQDFHALVPQKLPEELYWLEEENMIFRKLQEDRRLKEEVMRAKMEKTARLKAETKERTLKKFLLSQKDVVYTEPLEIQAGNPVTVLYNPANTVLNGKPEVWFRGSFNRWTHRLGPLPPQKMEATDDESSHVKTTAKVPLDAYMMDFVFSEKEDGGIFDNKNGLDYHLPVVGGISKEPPLHIVHIAVEMAPIAKVGGLGDVVTSLSRAVQELNHNVDIVFPKYDCIKHNFVKDLQFNRSYHWGGTEIKVWHGKVEGLSVYFLDPQNGLFQRGCVYGCADDAGRFGFFCHAALEFLLQGGFHPDILHCHDWSSAPVSWLFKDHYTQYGLIKTRIVFTIHNLEFGANAIGKAMTFADKATTVSPTYAKEVAGNSVISAHLYKFHGIINGIDPDIWDPYNDNFIPVPYTSENVVEGKRAAKEELQNRLGLKSADFPVVGIITRLTHQKGIHLIKHAIWRTLERNGQVVLLGSAPDPRIQNDFVNLANQLHSSHGDRARLVLTYDEPLSHLIYAGADFILVPSIFEPCGLTQLIAMRYGAVPVVRKTGGLFDTVFDVDHDKERAQAQVLEPNGFSFDGADAPGVDYALNRAISAWYDGREWFNSLCKTVMEQDWSWNRPALEYLELYHSARK
# B11: Stearoyl-[acyl-carrier-protein] 9-desaturase 5 (protein, UniProt Q9M879 30-396)
# chain: VSMASTIRSATTEVTNGRKLYIPPREVHVQVKHSMPPQKLEIFKSLEGWADETLLTYLKPVEKSWQPTDFLPEPESEGFYDQVKELRERCKELPDDYFVVLVGDMITEEALPTYQTMLNTLDGVRDETGASPTPWAIWTRAWTAEENRHGDLLNKYLYLSGRVDMRQIEKTIQYLIGSGMDPKTENNPYLGFIYTSFQERATFISHGNTARLAKDRGDLKLAQICGTIAADERRHETAYTKIVEKLFEIDPDGTILGLADMMKKKISMPAHLMYDGQDDNLFEHFSTVAQRLGVYTAKDYADILEFLVERWNVETLTDLSSEGHRAQDFVCGLPARIRKIEERAQGRAKEAAKNIPFSWIFGRNIRA
# B12: Phosphofructokinase 5 (protein, UniProt Q8VYN6 53-537)
# chain: ASEIQHSKTSASSIDLSDPDWKLKYEKDFEQRFSIPHITDVLPDAEAIRSTFCLKMRSPTEDFVGGYPSDEEWHGYINNNDRVLLKVISYSSPTSAGAECLDHDCSWVEQWIHRAGPREKIYFRPEEVKAAIITCGGLCPGLNDVIRHIVITLEIYGVKNIVGIPFGYRGFSDKDLTEMPLSRKVVQNIHLSGGSLLGVSRGGPSVSEIVDSMEERGINMLFVLGGNGTHAGANAIHNECRKRKIKVAVVGVPKTIDNDILHMDKTFGFDTAVEEAQRAINSAYIEAHSAYHGIGVVKLMGRNSGFIAMQASLASGQVDICLIPEVPFNLHGPNGVLKHLKYLIETKGSAVICVAEGAGQNFLEKTNAKDASGNAVLGDFGVYIQQETKKYFKEISTPIDVKYIDPTYMIRAVRANASDGILCTVLGQNAVHGAFAGYSGITVGIINTHYAYLPITEVIAYPKSVDPNSRMWHRCLTSTGQPDFI
# Biological target: T1, 2-CysPRXA C54D (pseudo-hyperoxidized variant) (Arabidopsis)
# Experiment: affinity purification with mass spectrometry; oxidizing: his6-tagged 2-CysPRXA variant (3 mg) on Ni-NTA-agarose pretreated with 1 mM H2O2; leaf extract (50 mg protein) made with 1 mM H2O2; 50 mM HEPES pH 8.0, 1 h, 4 °C; stepwise elution with 1 M NaCl, 10 mM DTT, 250 mM imidazole; hits not found on the column without 2-CysPRX; only the target purified
row,Binder,binding
1,B1,binds
2,B2,binds
3,B3,binds
4,B4,binds
5,B5,binds
6,B6,binds
7,B7,binds
8,B8,binds
9,B9,binds
10,B10,binds
11,B11,binds
12,B12,binds

# No constants are given. Whether binding was seen depends on the method and setting. Binding seen in cells or lysates may run through a third protein. Here binding means that the protein was enriched with, or labelled near, the bait; the list need not be complete.
